Values joined by “and” are separate entries in the source; they are usually repeats but may differ in a detail not shown here. Equal entries are not always repeated. In all, about 320,000 compounds went through this assay and about 22,000 (6.9%) were called active. Inconclusive means that the source gave no clear call. Such entries were picked first, then a sample of the others. Calls come from the whole dose curve; as a rule, active = well fitted inhibition curve with a large enough effect; inconclusive = small, poorly fitted or top-dose-only effect, or another doubt; inactive = no such curve, though single readings can be large or run the other way. A potency beside an inconclusive call is a rough fit, not a confirmed value.
test: Primary qHTS for delayed death inhibitors of the malarial parasite plastid, 96 hour incubation; settings: P. falciparum luciferase reporter growth; series mostly up to 28.7 µM
Outline: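 Two-generation exposure (96 h) targets delayed-death phenotype. Reporter parasites carrying integrated firefly luciferase, in red cells at 2% hematocrit and 0.05% parasitemia final, kept at 37 C, 5% CO2; luminescence loss indicates inhibition.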
Potency is the fitted concentration of half-maximal effect.

| Structure (SMILES) | Potency |
| --- | --- |
| Cc1ccc(-c2c(C(=O)N/N=C/c3ccsc3)nnn2-c2nonc2N)cc1 | inconclusive: 1.31 µM [inhibitor, full curve, poor fit] |
| COc1ccccc1/C=C/C(=O)OCCN1C(=O)c2ccccc2C1=O | inactive |
| Cn1c(=O)n(CCOc2ccc([N+](=O)[O-])cc2)c2ccccc21 | inactive |
| Cc1ccc(S(=O)(=O)Oc2ccc(/C=C(/NC(=O)c3ccccc3)C(=O)NC(C)C(=O)O)cc2)cc1 (centres undefined) | inconclusive: 18.5 µM [inhibitor, single point] |
| Cc1ccccc1C(=O)Nc1cccc(C(=O)N/N=C/c2ccc3c(c2)OCO3)c1 | inactive |
| Cc1ccc(-n2c(-c3ccc(Cl)cc3)c[n+]3c2CCC3)cc1 | active: 0.104 µM |
| Cc1nccn1CC(=O)c1ccc(O)c(O)c1 | inconclusive: 2.33 µM [inhibitor, single point] |
| Cc1cc(C)nc(/N=C2\NC(=O)CC(C(=O)O)N2c2ccc(Cl)cc2)n1 (centres undefined) | inactive |
| COc1ccc(NC(=O)c2c(C)cc(=O)oc2C)c(OC)c1 | inactive |
| Cc1cccnc1NC(=S)NC(=O)c1cccs1 | inactive |
| COc1ccc(OC)c(C2=CC(=O)C[C@H](c3ccc4c(c3)OCO4)C2)c1 | inconclusive: 3.29 µM [inhibitor, single point] |
| CCn1c(N2CCN(C(=O)Nc3ccc(F)cc3)CC2)nc2ccccc21 | inactive |
| O=c1c2oc3ccccc3c2ncn1Cc1ccc(F)cc1 | inconclusive: 9.28 µM [inhibitor, single point] |
| COc1ccc(NC(=O)N(Cc2cccs2)Cc2cc3cc4c(cc3[nH]c2=O)OCO4)cc1 | inactive |
| COc1cc(CNCCc2ccccc2)cc(Br)c1OCC(=O)Nc1ccccc1C | inconclusive: 2.62 µM [inhibitor, full curve, poor fit] |
| COC(=O)[C@@H]1C[C@H]2CC[C@H](O)C[C@H]2N1Cc1ccccc1OC(=O)c1cccs1 | inconclusive: 11.7 µM [inhibitor, single point] |
| Cc1cc(NC(=O)CSc2nnc(-c3ccncc3)n2N)ccc1Br | inactive |
| Cc1cccc(NC(=O)CCCC(=O)OC(C)C(=O)c2ccccc2)c1 (centres undefined) | inconclusive: 18.5 µM [inhibitor, single point] |
| O=C(COC(=O)c1cccnc1Cl)c1ccc(Cl)cc1Cl | inconclusive: 0.0928 µM [inhibitor, full curve, poor fit] |
| Cc1nn(C(C)C(=O)NCc2cccs2)c(=O)c2nn(-c3ccccc3)c(C)c12 (centres undefined) | inconclusive: 13.1 µM [inhibitor, single point] |
| CCc1ccc(C2=NN(c3ccc(S(N)(=O)=O)cc3)C(c3ccc(F)cc3)C2)cc1 (centres undefined) | inconclusive: 8.28 µM [inhibitor, partial curve] |
| O=C(c1cccs1)N1CCN(c2ccc(Cl)cc2)CC1 | inactive |
| COc1ccccc1-n1c(SCC(=O)O)nc2c(sc(=S)n2-c2ccc(C)c(C)c2)c1=O | inconclusive: 1.85 µM [inhibitor, partial curve, poor fit] |
| CCN(CC)S(=O)(=O)c1ccc(=O)n(CC(=O)N2CCCc3cc(C)ccc32)c1 | inconclusive: 5.22 µM [inhibitor, partial curve] |
| CCCN1CCCc2cc(CN)ccc21 | inactive |

Three entries out of the list, sorted by count of non-hydrogen atoms, smallest number first.

| Structure (SMILES) | Potency |
| --- | --- |
| Cc1cc(NC(=O)CSc2nnc(-c3ccncc3)n2N)ccc1Br | inactive |
| COc1ccccc1/C=C/C(=O)OCCN1C(=O)c2ccccc2C1=O | inactive |
| CCN(CC)S(=O)(=O)c1ccc(=O)n(CC(=O)N2CCCc3cc(C)ccc32)c1 | inconclusive: 5.22 µM [inhibitor, partial curve] |

Additional entries:

| Structure (SMILES) | Potency |
| --- | --- |
| Cc1ccc(S(=O)(=O)c2nc(-c3ccco3)oc2N2CCC(C)CC2)cc1 | inconclusive: 13.1 µM [inhibitor, single point] |
| CCCCC(=O)Nc1ccccc1N1CCN(c2ccc(F)cc2)CC1 | inconclusive: 20.8 µM [inhibitor, partial curve, poor fit] |
| Cn1c(SCC(=O)NCc2ccc3c(c2)OCO3)ncc(C(=O)Nc2ccc(F)cc2)c1=O | inactive |
| CCOC(=O)N1CCN(c2nc3c(c(=O)[nH]c(=O)n3C)n2Cc2ccccc2Cl)CC1 | inconclusive: 18.5 µM [inhibitor, single point] |
| Cc1c(-c2nc(N)nc(Nc3ccc(F)cc3)n2)oc2ccccc12 | inconclusive: 14.7 µM [inhibitor, single point] |
| CCOc1ccc(-c2nc(S(=O)(=O)c3ccccc3)c(N3CCC(C(N)=O)CC3)o2)cc1 | active: 14.7 µM |
| CC(C)(C)c1ccc(C(=O)Nc2cccc3ncccc23)cc1 | inconclusive: 18.5 µM [inhibitor, single point] |
| COc1ccc(S(=O)(=O)N2CCCCCC2)cc1C(=O)N(C)Cc1ccc(F)cc1 | inactive |
| COc1cccc(NCc2cc(=O)oc3cc(C)c(O)cc23)c1 | inactive |
| O=C(COC(=O)c1cc(Cl)ccc1O)NCC1CCCO1 (centres undefined) | inactive |
| CN1CCC(=O)N(CCOc2ccccc2)CC1 | inactive |
| CCn1cc(C2=NOC(C(=O)Nc3c(C)nn(Cc4ccc(F)cc4)c3C)C2)c(C)n1 (centres undefined) | inactive |
| Cc1csc(CNc2ncnc3ccc(-c4ccoc4)cc23)c1 | inconclusive: 11.7 µM [inhibitor, partial curve, poor fit] and inconclusive: 18.5 µM [inhibitor, partial curve, poor fit] |
| CCc1ccccc1NC(=O)/C(=C/c1ccco1)c1ccccc1 | active: 1.85 µM |
| COc1ccc(/C(N)=N/OC(=O)CSc2ccc(C)cc2)cc1 | inactive |
| COc1cc(C)ccc1OCCCCOc1ccccc1C(C)=O | inconclusive: 10.4 µM [inhibitor, partial curve] |
| Cc1ccc(-c2cc(C(=O)N/N=C/c3ccc([N+](=O)[O-])o3)c3ccccc3n2)o1 | active: 3.29 µM |
| COc1ccc(-c2nc(NC(=O)c3c(C)noc3C)sc2C)cc1 | inactive |
| COc1cc2c(cc1NC(=O)CSc1nnnn1-c1ccccc1)oc1ccccc12 | inconclusive: 0.147 µM [inhibitor, full curve] |
| COc1ccc(C2c3ccc4ccccc4c3Oc3ncn(CCN4CCOCC4)c(=N)c32)cc1 (centres undefined) | active: 6.57 µM |
| Nc1c(-c2cccs2)cnc2c(-c3ccc(F)cc3)cnn12 | inactive |
| Cc1cccc(NC(=O)C(=O)NCCCc2ccccc2)c1 | inactive |
| COc1ccc(CCNC(=O)COc2cccc3c2OC(C)(C)C3)cc1OC | inconclusive: 0.828 µM [inhibitor, full curve, poor fit] |
| COc1ccc(C2c3ccc4ccccc4c3Oc3ncn(CCCO)c(=N)c32)cc1OC (centres undefined) | active: 1.85 µM |
| CCOc1cc(C(c2c(C)[nH][nH]c2=O)c2c(C)[nH][nH]c2=O)cc(Cl)c1O | inconclusive: 18.5 µM [inhibitor, single point] |

Another view of some results above:
Structure (SMILES)	Potency
CCOc1ccc(-c2nc(S(=O)(=O)c3ccccc3)c(N3CCC(C(N)=O)CC3)o2)cc1	active: 14.7 µM
CC(C)(C)c1ccc(C(=O)Nc2cccc3ncccc23)cc1	inconclusive: 18.5 µM [inhibitor, single point]
COc1ccc(S(=O)(=O)N2CCCCCC2)cc1C(=O)N(C)Cc1ccc(F)cc1	inactive
COc1cccc(NCc2cc(=O)oc3cc(C)c(O)cc23)c1	inactive
O=C(COC(=O)c1cc(Cl)ccc1O)NCC1CCCO1 (centres undefined)	inactive
CN1CCC(=O)N(CCOc2ccccc2)CC1	inactive
CCn1cc(C2=NOC(C(=O)Nc3c(C)nn(Cc4ccc(F)cc4)c3C)C2)c(C)n1 (centres undefined)	inactive
Cc1csc(CNc2ncnc3ccc(-c4ccoc4)cc23)c1	inconclusive: 11.7 µM [inhibitor, partial curve, poor fit] and inconclusive: 18.5 µM [inhibitor, partial curve, poor fit]
CCc1ccccc1NC(=O)/C(=C/c1ccco1)c1ccccc1	active: 1.85 µM
COc1ccc(/C(N)=N/OC(=O)CSc2ccc(C)cc2)cc1	inactive
COc1cc(C)ccc1OCCCCOc1ccccc1C(C)=O	inconclusive: 10.4 µM [inhibitor, partial curve]
Cc1ccc(-c2cc(C(=O)N/N=C/c3ccc([N+](=O)[O-])o3)c3ccccc3n2)o1	active: 3.29 µM
COc1ccc(-c2nc(NC(=O)c3c(C)noc3C)sc2C)cc1	inactive
COc1cc2c(cc1NC(=O)CSc1nnnn1-c1ccccc1)oc1ccccc12	inconclusive: 0.147 µM [inhibitor, full curve]
COc1ccc(C2c3ccc4ccccc4c3Oc3ncn(CCN4CCOCC4)c(=N)c32)cc1 (centres undefined)	active: 6.57 µM
Nc1c(-c2cccs2)cnc2c(-c3ccc(F)cc3)cnn12	inactive
Cc1cccc(NC(=O)C(=O)NCCCc2ccccc2)c1	inactive
COc1ccc(CCNC(=O)COc2cccc3c2OC(C)(C)C3)cc1OC	inconclusive: 0.828 µM [inhibitor, full curve, poor fit]

More entries follow:

| Structure (SMILES) | Potency |
| --- | --- |
| CCN(CC)CCn1c2c(c(SCC(=O)NCc3ccccc3)nc1=O)CCCC2 | inconclusive: 18.5 µM [inhibitor, single point] |
| CCCC(O)(c1ccc(Cl)cc1)C(CN1CCOCC1)c1ccccc1 (centres undefined) | inconclusive: 9.28 µM [inhibitor, partial curve] |
| O=S(=O)(c1ccccc1)N1N=C(c2ccc(O)cc2)CC1c1ccco1 (centres undefined) | inconclusive: 11.7 µM [inhibitor, single point] |
| O=S(=O)(NC(=S)c1ccccc1)c1ccc(Cl)cc1 | inconclusive: 18.5 µM [inhibitor, partial curve, poor fit] |
| Cc1ccccc1NC(=O)CN1CCC(NC(=O)Nc2ccccc2)CC1 | inactive |
| Cc1cccn2c(=O)c(/C=C(\C#N)C(N)=O)c(N3CCN(c4ccccc4)CC3)nc12 | inconclusive: 13.1 µM [inhibitor, single point] |
| O=c1c2sccc2nc(SCc2cc(=O)n3ccccc3n2)n1-c1ccc(Br)cc1 | inconclusive: 11.7 µM [inhibitor, single point] |
| COCC(C)NC(=O)CSc1nc2ccccc2c(=O)n1CCc1ccc(S(N)(=O)=O)cc1 (centres undefined) | inconclusive: 13.1 µM [inhibitor, single point] |
| OCC[C@@H]1C[C@@H](O)[C@H](O)[C@]2(CCc3ccccc3CO2)O1 | inactive |
| CN1CCN(C(=O)C2=C[C@H](c3coc4ccccc4c3=O)C[C@H](OCc3ccc(CO)cc3)O2)CC1 | inconclusive: 18.5 µM [inhibitor, single point] |
| NC(=O)c1ncc(C(F)(F)F)cc1Oc1cccnc1 | inconclusive: 18.5 µM [inhibitor, single point] |
| COC(=O)C1=C(c2ccc(OCc3ccccc3)cc2)C[C@@H]2CC[C@H]1N2C(=O)NCc1ccc(N(C)C)cc1 | active: 9.28 µM |
| CC1(C)[C@@H]2CC[C@]1(C)[C@@H](OC(=O)CSC#N)C2 | inactive |
| O=C(N=Nc1c(O)[nH]c2ccc([N+](=O)[O-])cc12)c1ccccc1Cl | inactive |
| CC(Oc1ccccc1)C(=O)Nc1nnc(S(=O)(=O)N2CCCCCC2)s1 (centres undefined) | inactive |
| COc1ccc(C2=NN3C(C2)c2ccccc2OC3c2cccs2)cc1 (centres undefined) | inconclusive: 18.5 µM [inhibitor, single point] |
| CC(C)(C)c1c(Cl)c(O)c(-c2ccccc2)c(=O)n1-c1ccccc1 | inactive |
| Cc1cc2nc3c(c(=O)n2[nH]1)CCCC3 | inactive |
| Cn1cc(S(=O)(=O)CC(=O)N2CCc3ccccc32)c2ccccc21 | inactive |
| CCCNC(=O)/C=C/C(=O)O | inactive |
| Cc1ccc(NC(=O)c2ccc(COc3ccccc3[N+](=O)[O-])o2)nc1 | inactive |
| Cc1ccc(-c2cc(C(F)F)nc(NCc3cccs3)n2)cc1 | active: 2.62 µM |
| COc1cccc(CN2CCN(Cc3ccon3)CC2CCO)c1 (centres undefined) | inconclusive: 13.1 µM [inhibitor, partial curve, poor fit] |
| COc1ccc(OCC(=O)NCc2ccc(Cl)cc2)cc1 | inconclusive: 18.5 µM [inhibitor, single point] |
